Source: article PMC2808332
Results are given in words; binding and its absence hold for the method and conditions named. A result given as binding can be weak or reduced; the word gives no strength.

Protein sequences, listed by entry. Tags and fused reporters are not part of them. Lines headed by an entry give the natural chain unless they say otherwise; changes in a name come on top.
UniProt P36888: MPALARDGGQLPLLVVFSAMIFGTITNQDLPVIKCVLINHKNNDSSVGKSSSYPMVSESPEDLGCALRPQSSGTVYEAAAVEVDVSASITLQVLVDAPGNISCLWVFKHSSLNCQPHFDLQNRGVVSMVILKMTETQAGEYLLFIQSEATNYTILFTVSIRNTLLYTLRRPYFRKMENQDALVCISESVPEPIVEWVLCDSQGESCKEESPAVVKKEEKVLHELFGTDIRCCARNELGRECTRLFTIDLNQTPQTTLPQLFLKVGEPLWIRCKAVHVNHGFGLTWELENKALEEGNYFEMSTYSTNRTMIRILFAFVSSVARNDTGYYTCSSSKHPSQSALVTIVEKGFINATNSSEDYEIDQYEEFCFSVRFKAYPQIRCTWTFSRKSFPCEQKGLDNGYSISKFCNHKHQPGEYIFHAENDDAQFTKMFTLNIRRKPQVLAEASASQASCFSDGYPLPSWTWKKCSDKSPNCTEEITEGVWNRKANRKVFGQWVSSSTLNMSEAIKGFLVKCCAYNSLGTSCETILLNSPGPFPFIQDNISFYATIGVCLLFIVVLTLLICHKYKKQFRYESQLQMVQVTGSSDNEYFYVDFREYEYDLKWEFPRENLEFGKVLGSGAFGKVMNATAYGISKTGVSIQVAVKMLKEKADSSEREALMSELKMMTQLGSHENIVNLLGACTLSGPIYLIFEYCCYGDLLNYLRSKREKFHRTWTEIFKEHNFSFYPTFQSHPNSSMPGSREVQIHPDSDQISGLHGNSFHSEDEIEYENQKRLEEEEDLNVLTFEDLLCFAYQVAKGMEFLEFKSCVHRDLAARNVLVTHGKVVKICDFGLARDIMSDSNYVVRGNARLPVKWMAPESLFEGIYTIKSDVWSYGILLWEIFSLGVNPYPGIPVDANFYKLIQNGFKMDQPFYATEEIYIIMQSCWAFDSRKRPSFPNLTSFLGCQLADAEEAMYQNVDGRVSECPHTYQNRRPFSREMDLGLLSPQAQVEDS
UniProt Q12866: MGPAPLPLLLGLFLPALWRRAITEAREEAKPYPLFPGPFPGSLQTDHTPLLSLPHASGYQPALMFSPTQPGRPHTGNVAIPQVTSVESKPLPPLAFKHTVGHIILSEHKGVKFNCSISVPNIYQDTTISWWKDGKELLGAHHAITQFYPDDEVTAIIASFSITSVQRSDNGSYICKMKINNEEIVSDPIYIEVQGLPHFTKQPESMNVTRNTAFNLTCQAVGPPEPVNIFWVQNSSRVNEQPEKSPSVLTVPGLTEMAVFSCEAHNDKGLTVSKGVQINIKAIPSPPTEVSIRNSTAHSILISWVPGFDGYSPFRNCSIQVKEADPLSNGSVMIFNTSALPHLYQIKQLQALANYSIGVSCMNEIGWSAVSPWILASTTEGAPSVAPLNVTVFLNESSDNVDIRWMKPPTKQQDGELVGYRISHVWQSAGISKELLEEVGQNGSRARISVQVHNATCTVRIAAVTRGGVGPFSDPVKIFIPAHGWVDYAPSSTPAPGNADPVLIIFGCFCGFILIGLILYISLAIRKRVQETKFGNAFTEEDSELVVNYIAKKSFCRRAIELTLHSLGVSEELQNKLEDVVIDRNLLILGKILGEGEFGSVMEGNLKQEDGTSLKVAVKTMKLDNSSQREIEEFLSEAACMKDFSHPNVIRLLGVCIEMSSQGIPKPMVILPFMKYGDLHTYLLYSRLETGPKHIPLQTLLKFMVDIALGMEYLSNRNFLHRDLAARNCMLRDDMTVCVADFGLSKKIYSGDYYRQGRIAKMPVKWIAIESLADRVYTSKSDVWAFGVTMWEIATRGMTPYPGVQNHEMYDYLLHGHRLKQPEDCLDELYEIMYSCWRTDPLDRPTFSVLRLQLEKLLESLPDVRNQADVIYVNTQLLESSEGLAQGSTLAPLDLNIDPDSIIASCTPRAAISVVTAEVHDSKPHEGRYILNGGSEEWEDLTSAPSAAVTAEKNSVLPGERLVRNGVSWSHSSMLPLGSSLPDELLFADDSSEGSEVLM
UniProt Q02763: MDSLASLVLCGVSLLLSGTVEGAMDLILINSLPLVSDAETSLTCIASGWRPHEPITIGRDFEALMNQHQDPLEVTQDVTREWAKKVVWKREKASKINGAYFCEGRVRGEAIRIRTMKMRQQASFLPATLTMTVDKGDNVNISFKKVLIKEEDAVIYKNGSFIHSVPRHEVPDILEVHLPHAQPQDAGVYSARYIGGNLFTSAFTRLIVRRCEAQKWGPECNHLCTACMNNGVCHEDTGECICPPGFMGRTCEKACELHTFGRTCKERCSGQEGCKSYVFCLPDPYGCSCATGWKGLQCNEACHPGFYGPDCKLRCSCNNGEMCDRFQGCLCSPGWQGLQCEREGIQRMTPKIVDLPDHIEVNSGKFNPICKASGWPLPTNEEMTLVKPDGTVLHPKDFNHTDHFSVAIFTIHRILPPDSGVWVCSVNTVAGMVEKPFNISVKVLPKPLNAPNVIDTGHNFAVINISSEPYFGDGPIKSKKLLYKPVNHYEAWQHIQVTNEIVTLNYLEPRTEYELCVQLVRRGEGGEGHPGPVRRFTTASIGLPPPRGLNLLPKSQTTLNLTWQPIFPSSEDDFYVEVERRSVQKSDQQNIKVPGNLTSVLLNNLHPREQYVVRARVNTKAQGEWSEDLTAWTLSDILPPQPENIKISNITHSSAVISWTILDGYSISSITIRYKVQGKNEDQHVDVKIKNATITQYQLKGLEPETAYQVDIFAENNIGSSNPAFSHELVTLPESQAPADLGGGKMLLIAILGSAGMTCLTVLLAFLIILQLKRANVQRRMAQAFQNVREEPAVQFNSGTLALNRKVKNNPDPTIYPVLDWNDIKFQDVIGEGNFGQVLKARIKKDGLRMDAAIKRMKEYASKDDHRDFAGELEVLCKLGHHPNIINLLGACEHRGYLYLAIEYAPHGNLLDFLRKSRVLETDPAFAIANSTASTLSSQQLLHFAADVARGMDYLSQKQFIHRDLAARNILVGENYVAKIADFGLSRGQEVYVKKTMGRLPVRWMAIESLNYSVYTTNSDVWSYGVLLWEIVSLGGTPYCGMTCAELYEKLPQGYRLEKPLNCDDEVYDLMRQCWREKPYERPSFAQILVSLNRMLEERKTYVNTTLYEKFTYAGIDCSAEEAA
UniProt Q01974: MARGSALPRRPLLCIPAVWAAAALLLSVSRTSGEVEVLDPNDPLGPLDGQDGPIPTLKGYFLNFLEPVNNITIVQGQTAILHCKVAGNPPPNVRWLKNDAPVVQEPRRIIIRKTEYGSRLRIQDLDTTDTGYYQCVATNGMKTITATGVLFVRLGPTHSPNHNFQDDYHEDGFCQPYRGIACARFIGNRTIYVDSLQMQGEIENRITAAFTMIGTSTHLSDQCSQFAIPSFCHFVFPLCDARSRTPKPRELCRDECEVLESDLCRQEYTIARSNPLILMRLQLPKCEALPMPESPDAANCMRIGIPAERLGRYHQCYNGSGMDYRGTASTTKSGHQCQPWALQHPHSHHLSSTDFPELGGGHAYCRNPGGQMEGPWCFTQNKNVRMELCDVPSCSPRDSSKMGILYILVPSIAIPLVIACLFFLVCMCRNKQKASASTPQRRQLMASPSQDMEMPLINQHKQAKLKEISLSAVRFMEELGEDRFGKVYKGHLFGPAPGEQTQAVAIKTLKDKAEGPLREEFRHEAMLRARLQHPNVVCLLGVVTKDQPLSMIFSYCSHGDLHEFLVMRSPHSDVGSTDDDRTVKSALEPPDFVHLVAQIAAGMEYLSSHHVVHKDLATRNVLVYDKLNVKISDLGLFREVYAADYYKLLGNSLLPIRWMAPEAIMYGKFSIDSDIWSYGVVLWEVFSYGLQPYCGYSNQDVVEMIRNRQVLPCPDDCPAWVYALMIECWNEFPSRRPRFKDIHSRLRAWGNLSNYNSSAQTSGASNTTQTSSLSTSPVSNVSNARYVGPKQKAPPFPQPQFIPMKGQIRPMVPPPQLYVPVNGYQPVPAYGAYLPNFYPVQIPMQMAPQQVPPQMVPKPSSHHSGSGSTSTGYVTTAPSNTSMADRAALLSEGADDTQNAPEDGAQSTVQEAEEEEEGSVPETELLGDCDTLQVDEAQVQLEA
UniProt P35916: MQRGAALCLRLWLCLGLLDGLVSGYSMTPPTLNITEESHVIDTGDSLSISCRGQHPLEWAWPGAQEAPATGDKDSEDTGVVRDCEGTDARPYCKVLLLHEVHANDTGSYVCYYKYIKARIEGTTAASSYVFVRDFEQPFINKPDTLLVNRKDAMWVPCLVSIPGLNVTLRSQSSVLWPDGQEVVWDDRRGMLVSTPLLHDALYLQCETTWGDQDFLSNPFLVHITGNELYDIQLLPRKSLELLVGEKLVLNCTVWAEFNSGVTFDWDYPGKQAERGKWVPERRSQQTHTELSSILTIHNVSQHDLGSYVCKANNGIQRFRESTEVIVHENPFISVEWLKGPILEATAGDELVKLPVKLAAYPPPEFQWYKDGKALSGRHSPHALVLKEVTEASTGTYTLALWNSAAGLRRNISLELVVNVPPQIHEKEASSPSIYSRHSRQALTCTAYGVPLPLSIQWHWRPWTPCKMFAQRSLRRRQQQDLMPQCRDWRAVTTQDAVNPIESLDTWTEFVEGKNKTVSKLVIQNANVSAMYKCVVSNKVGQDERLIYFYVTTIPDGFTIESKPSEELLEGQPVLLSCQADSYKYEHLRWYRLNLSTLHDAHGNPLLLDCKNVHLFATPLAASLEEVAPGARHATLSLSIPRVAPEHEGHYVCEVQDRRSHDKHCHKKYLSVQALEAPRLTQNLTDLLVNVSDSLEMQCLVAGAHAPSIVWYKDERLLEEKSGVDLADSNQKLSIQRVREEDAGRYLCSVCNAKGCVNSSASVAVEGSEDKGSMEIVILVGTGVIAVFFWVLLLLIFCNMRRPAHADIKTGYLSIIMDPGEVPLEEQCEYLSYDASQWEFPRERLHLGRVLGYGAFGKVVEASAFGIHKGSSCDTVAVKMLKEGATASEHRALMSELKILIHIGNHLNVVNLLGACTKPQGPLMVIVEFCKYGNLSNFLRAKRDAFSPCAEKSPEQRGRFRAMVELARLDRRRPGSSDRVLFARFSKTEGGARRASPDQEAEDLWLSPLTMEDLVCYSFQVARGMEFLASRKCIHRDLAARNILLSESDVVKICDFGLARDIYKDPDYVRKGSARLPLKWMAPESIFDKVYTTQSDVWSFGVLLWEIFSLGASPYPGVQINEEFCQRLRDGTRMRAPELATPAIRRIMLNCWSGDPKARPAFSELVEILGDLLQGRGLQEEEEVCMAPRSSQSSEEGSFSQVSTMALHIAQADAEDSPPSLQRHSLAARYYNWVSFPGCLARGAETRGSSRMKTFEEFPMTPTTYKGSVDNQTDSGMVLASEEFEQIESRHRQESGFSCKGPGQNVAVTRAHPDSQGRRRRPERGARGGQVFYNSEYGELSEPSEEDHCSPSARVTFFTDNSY
UniProt Q8WWU5: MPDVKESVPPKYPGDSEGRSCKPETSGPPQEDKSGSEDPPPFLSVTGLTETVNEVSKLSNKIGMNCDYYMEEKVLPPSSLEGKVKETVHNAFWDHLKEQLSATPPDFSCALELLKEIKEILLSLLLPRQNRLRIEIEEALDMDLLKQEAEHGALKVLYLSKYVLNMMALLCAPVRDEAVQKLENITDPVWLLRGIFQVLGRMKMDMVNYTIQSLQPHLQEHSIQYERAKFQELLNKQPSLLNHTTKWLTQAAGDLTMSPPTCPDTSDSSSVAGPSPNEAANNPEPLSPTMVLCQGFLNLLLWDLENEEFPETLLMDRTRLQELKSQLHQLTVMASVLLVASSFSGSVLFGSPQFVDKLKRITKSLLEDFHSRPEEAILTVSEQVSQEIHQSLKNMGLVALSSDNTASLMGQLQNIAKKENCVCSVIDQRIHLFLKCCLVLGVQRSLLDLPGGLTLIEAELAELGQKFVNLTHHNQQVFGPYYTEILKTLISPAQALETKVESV
UniProt Q9BSA4: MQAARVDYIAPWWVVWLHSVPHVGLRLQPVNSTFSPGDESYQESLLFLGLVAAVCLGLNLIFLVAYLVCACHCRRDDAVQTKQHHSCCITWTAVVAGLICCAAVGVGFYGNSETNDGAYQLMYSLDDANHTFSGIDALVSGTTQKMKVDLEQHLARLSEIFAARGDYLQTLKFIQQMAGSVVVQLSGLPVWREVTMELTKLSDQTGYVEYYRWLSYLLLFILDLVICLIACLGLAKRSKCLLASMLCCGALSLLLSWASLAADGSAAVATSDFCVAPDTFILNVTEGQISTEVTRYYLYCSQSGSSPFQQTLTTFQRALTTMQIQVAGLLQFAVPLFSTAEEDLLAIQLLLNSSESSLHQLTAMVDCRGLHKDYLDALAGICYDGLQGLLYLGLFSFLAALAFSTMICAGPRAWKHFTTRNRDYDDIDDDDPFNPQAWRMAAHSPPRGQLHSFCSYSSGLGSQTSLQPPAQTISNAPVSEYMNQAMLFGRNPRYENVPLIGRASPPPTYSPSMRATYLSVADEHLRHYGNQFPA

Assays:
Assay in all cases: peptide or protein array; Invitrogen Protoarray v4.0, about 8,400 human proteins spotted on nitrocellulose-coated glass slides; 10 µg biotinylated tag-free NEMO in 120 µl probing buffer (PBS, 0.5 mM DTT, 5 mM MgCl2, 5% glycerol, 0.05% Triton X-100), 4°C, 1.5 h; bound NEMO detected with labelled streptavidin; hits Z-score > 3, hits of the biotin-GST control array subtracted; both purified
[1] = target: FMS-related tyrosine kinase 3 (D835Y mutant) (human) (UniProt P36888)
[2] = target: c-Mer proto-oncogene tyrosine kinase (human) (UniProt Q12866)
Synaptotagmin I (human) = Synaptotagmin I (human) (UniProt P21579)
[3] = target: Ephrin receptor A4 (human) (UniProt P54764)
[4] = target: FMS-related tyrosine kinase 3 (human) (UniProt P36888)
[5] = target: TYRO3 protein tyrosine kinase (human) (UniProt Q06418)
[6] = target: TEK tyrosine kinase (human) (UniProt Q02763)
[7] = target: Receptor tyrosine kinase-like orphan receptor 2 (human) (UniProt Q01974)
[8] = target: FMS-related tyrosine kinase 4 (human) (UniProt P35916)
[9] = target: Anaplastic lymphoma receptor tyrosine kinase (human) (UniProt Q9UM73)
[10] = target: t-complex 11 (mouse) (human) (UniProt Q8WWU5)
c-Ros oncogene 1 (human) = c-Ros oncogene 1 (human) (UniProt P08922)
Tweety homolog 2 (human) = Tweety homolog 2 (human) (UniProt Q9BSA4)
[11] = target: RET proto-oncogene (human) (UniProt P07949)

Measured: binding

NEMO (NF-κB essential modulator), tag-free, biotinylated (from UniProt Q9Y6K9 1-419)
binds: all assays above
